Source: the supplement of paper PMC3545927
The list shows a part of the results, in another mix than the full data.

Chains of the proteins cited; added tags and fusions are not shown.
furin, P09958, UniProt P09958, whole entry: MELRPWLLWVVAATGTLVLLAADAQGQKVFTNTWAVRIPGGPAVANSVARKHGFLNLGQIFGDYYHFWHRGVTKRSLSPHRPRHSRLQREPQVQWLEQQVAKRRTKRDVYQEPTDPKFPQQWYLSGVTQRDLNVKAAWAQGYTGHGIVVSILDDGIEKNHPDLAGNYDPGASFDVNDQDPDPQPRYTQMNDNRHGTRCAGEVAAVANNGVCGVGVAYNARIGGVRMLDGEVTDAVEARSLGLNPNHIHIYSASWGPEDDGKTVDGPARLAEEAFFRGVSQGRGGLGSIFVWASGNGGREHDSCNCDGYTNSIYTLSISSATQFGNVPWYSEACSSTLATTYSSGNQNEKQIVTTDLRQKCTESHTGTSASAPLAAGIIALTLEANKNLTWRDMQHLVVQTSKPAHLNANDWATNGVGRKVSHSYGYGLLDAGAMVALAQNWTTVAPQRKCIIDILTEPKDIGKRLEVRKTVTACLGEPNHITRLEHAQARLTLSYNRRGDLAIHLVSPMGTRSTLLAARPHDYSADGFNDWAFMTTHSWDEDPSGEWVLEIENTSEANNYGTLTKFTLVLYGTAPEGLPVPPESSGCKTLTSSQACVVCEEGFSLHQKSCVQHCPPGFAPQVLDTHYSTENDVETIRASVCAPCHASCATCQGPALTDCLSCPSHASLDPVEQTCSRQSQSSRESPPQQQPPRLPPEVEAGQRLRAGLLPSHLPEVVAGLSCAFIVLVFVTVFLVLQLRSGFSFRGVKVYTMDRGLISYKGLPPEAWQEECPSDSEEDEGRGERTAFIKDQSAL

Target: furin, P09958
Test: furin cleavage Z-score vs untreated control; higher = more cleavage, active = 3.5 or more, inactive = 1 or less, 8 variable residues between constant flanks
Method in brief: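 Sequencing of released DNA, tagged with adapters by PCR, gave read counts used as abundance. That DNA was freed when purified furin cut N-terminally bead-bound 8-mer peptides fused to a cDNA oligonucleotide, in 0.01 ml reactions at 1:10 enzyme:substrate in 50 mM HEPES pH 7.5 with CaCl2 and NaCl, lasting 7.5, 15 or 30 min. The cleavage Z-score was the lowess-adjusted log count versus furin-free reactions, scaled by median absolute deviation.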

Sequence	furin cleavage Z-score (7.5 min)	furin cleavage Z-score (15 min)	furin cleavage Z-score (30 min)
CALAQRQRRIAGNASASA [FS-347]	inactive: 0.264	inactive: -0.423	inactive: 0.578
CAMEECMQHLAGNASASA [HC28]	1.16	1.4	1.54
CAQLQRQGRGAGNASASA [FS-283]	2.21	2.93	2.47
CARQARRAEPAGNASASA [FS-2505]	2.51	3.08	1.66
CAWGRRARRGAGNASASA [FS-316]	2.44	1.83	1.6
CARRHRSYSPAGNASASA [FS-2775]	1.87	1.87	2.81
CARARRTLGHAGNASASA [FS-1684]	active: 6.43	active: 8.11	active: 7.53
CAMEECPQHLAGNASASA [HC40]	1.74	1.43	1.19
CAVVPCSMSYAGNASASA [HC2039]	1.16	1.64	1.3
CALWHYPCTIAGNASASA [HC468]	1.54	1.52	1.36
CAVPQRHRRTAGNASASA [FS-1432]	active: 10.8	active: 9.86	active: 9.48
CAMEECSQHFAGNASASA [HC1767]	2.16	1.35	1.89
CADHMEECSQAGNASASA [HC1815]	inactive: -0.251	inactive: -0.239	inactive: -0.816
CAEHTTPCSGAGNASASA [HC1975]	inactive: -1.73	inactive: -1.12	inactive: 0.179
CAKPLRRKRSAGNASASA [FS-260]	1.71	1.32	1.94
CANRVAACLRAGNASASA [HC1612]	1.11	2.15	1.36
CARSVRCTSHAGNASASA [FS-2609]	1.25	2.37	2.41
CAQSSRHRRAAGNASASA [FS-851]	active: 13.1	active: 12.7	active: 10.3

Sequence	furin cleavage Z-score (7.5 min)	furin cleavage Z-score (15 min)	furin cleavage Z-score (30 min)
CAGLLRSRRNAGNASASA [FS-1199]	3.08	2.57	2.61
CAIIIRDQRSAGNASASA [FS-664]	1.02	3.28	2.98
CADKRRTKKAAGNASASA [FS-224]	1.81	1.61	3.03
CARGPREVSPAGNASASA [FS-2020]	2.79	3.42	3.27
CAYRRRHRKHAGNASASA [FS-740]	3.32	2.99	2.07
CALRKSRRFAAGNASASA [HC1298]	1.4	1.75	2.1
CAVVCCNMSYAGNASASA [HC118]	2.3	2.6	2.15
CARPPRGFQPAGNASASA [FS-3019]	inactive: -1.18	inactive: -0.836	inactive: -0.248
CATNVVFKRDAGNASASA [FS-569]	3.1	1.24	2.9
CAKSPRRTRSAGNASASA [FS-1351]	active: 5.21	active: 4.36	2.84
CAKPSRHQRTAGNASASA [FS-1460]	1.14	2.1	2.3
CAGGRRRRRTAGNASASA [FS-592]	2.21	1.63	1.74
CASTPCSAHWAGNASASA [HC2568]	2.09	1.65	1.64
CAQYFLTRVEAGNASASA [HC584]	inactive: -0.544	inactive: -0.576	inactive: 0.581
CATESDIRTEAGNASASA [HC1485]	inactive: -0.326	inactive: -0.524	inactive: -0.55
CARSARRKRKAGNASASA [FS-1610]	active: 9.41	active: 11.4	active: 7.56
CALSPYYKRYAGNASASA [HC576]	1.15	1.65	1.73
CAGKSRRKRQAGNASASA [FS-1328]	active: 11.6	active: 12.5	active: 8.34

Laid out differently: results already given.

| Sequence | furin cleavage Z-score (7.5 min) | furin cleavage Z-score (15 min) | furin cleavage Z-score (30 min) |
| --- | --- | --- | --- |
| CAEHTTPCSGAGNASASA [HC1975] | inactive: -1.73 | inactive: -1.12 | inactive: 0.179 |
| CAKPLRRKRSAGNASASA [FS-260] | 1.71 | 1.32 | 1.94 |
| CANRVAACLRAGNASASA [HC1612] | 1.11 | 2.15 | 1.36 |
| CARSVRCTSHAGNASASA [FS-2609] | 1.25 | 2.37 | 2.41 |
| CAQSSRHRRAAGNASASA [FS-851] | active: 13.1 | active: 12.7 | active: 10.3 |
| CAGLLRSRRNAGNASASA [FS-1199] | 3.08 | 2.57 | 2.61 |
